Assay results taken from the supplement of paper PMC10689618.
The other results are listed elsewhere or left out. Single values are uncertain, as repeats are few or missing.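 Primary human fetal astrocytes engulfed labelled rat cortical synaptosomes, measured as a red/green ratio corrected for calcein live-cell signal and scaled to the plate median. Toxicity meant calcein falling over 30%; decreased phagocytosis meant below 70% of median above 5 µM.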

test system: Human fetal astrocytes; assay: loss of total cells relative to no-compound high-control median (toxicity); higher = more toxic (fewer cells); settings: 11.11 µM; 24 h

SMILES | loss of total cells [%]
NC(=O)c1cccnc1 | -6.3
C[C@H]1O[C@H](O[C@H]2[C@H](O)[C@@H](O)[C@@H](O[C@@H]([C@H](O)[C@@H](O)C=O)[C@H](O)CO)O[C@@H]2CO)[C@H](O)[C@@H](O)[C@@H]1N[C@H]1C=C(CO)[C@@H](O)[C@H](O)[C@H]1O | 17.4
CCN(CC)CCOC(=O)C(c1ccccc1)c1ccccc1 | 10.2
N[C@@H](CSCSC[C@H](N)C(=O)O)C(=O)O | -4.1
C=CC1=C(C)/C(=C/c2[nH]c(Cc3[nH]c(/C=C4\NC(=O)C(C)=C4C=C)c(C)c3CCC(=O)O)c(CCC(=O)O)c2C)NC1=O | 0
C[C@]12CC[C@@H]3c4ccc(O)cc4CC[C@H]3[C@@H]1CC[C@@H]2OC(=O)CCC1CCCC1 | 27.4
C[C@@H]1C(=O)O[C@H]2C[C@@]34[C@H]5C[C@@H](C(C)(C)C)[C@]36[C@@H](OC(=O)[C@@H]6O)O[C@@]4(C(=O)O5)[C@]21O | 2.1
CN(C)CCOC(c1ccc(Cl)cc1)c1ccccn1 (stereo not given) | -38.3
COc1ccc(/C=C/C(=O)O)cc1OC | 46.5
COc1ccc2c(c1)O[C@H]1c3ccc(OC)cc3OC[C@@H]21 | 38.7
CCCCC(CC)CN=C(N)N=C(N)NCCCCCCNC(N)=NC(N)=NCC(CC)CCCC (stereo not given) | 36.5
Cc1ncc(C[n+]2csc(CCO)c2C)c(N)n1 | 29.8
O=C(/C=C/c1ccccc1)c1ccc(O[C@@H]2O[C@H](CO)[C@@H](O)[C@H](O)[C@H]2O)cc1O | 0.6
COc1ccc(C(C)=O)c(O)c1 | 12.8
COc1c2ccoc2cc2oc(C)cc(=O)c12 | 8.1
COCC1=C(C(=O)OC(C)OC(=O)OC(C)C)N2C(=O)[C@@H](NC(=O)/C(=N\OC)c3csc(N)n3)[C@H]2SC1 (stereo not given in full) | -1.6
C[C@]12CCC(=O)C=C1CC[C@@H]1[C@@H]2[C@@H](O)C[C@@]2(C)[C@H]1CC[C@]2(O)C(=O)COP(=O)(O)O | 11.2
CC1(C)[C@@H](OC(=O)CCC(=O)O)CC[C@]2(C)[C@H]3C(=O)C=C4[C@@H]5C[C@@](C)(C(=O)O)CC[C@]5(C)CC[C@@]4(C)[C@]3(C)CC[C@@H]12 | 10.2
C/C=C/c1ccc(OC)cc1 | 21.3
CCOc1cc(CC(=O)N[C@@H](CC(C)C)c2ccccc2N2CCCCC2)ccc1C(=O)O | -7.8

SMILES | loss of total cells [%]
CC(=O)c1ccc[nH]1 | 0
O=C(Cn1ccnc1[N+](=O)[O-])NCCO | 22
NC(=O)c1ncn([C@@H]2O[C@H](CO)[C@@H](O)[C@H]2O)c1N | 11.5
COc1cc(/C=C/C(=O)CC(=O)/C=C/c2ccc(O)c(OC)c2)ccc1O | 7.4
COc1cc(O)c(C(C)=O)c(O)c1 | 17.6
CC(=O)O[C@@H]1CC[C@@]2(C)C(C[C@@H](OC(C)=O)[C@@]3(C)C4=CC(=O)O[C@@H](c5ccoc5)[C@]4(C)CCC23)C1(C)C (stereo partly drawn) [3alpha-ACETOXYDIHYDRODEOXYGEDUNIN] | 12.3
CN(C)CCCOc1nn(Cc2ccccc2)c2ccccc12 | 2.6
O=c1cc(-c2ccccc2)oc2cccc(O)c12 | -3.4
C1CNCCN1 | -13
OC[C@@H](O)[C@@H](O[C@@H]1O[C@H](CO)[C@@H](O)[C@H](O)[C@H]1O)[C@H](O)[C@@H](O)CO | -10.8
CC(CCc1ccc(O)cc1)NCCc1ccc(O)c(O)c1 (stereo not given) | 27.2
Oc1cccc(O)c1 | -10.1
COc1cc(O)c(C)c(O)c1 | -2.9
CCOC(=O)Nc1nc2ccccc2[nH]1 | 49.5
COc1cc2c(cc1OC)-c1c(oc3cc(O)cc(O)c3c1=O)CO2 | 4.5
Nc1cc(C(Cl)=C(Cl)Cl)c(S(N)(=O)=O)cc1S(N)(=O)=O | -12.1
N[C@@H](C(=O)O)[C@@H](O)[C@H](O)[C@H](O)CO | -0.7
C[C@@H]1CC[C@@]2(OC1)O[C@H]1C[C@H]3[C@@H]4CC=C5C[C@@H](O)CC[C@]5(C)[C@H]4CC[C@]3(C)[C@H]1[C@@H]2C | -2.9
Cc1cc(-c2ccccc2)nnc1NCCN1CCOCC1 | -25
COc1cc(-c2cc(=O)c3c(O)c(OC)c(OC)c(OC)c3o2)cc(OC)c1OC | 2.7

same assay, conditions: 22.22 µM; 24 h

SMILES | loss of total cells [%]
NC(=O)c1cccnc1 | -4
C[C@H]1O[C@H](O[C@H]2[C@H](O)[C@@H](O)[C@@H](O[C@@H]([C@H](O)[C@@H](O)C=O)[C@H](O)CO)O[C@@H]2CO)[C@H](O)[C@@H](O)[C@@H]1N[C@H]1C=C(CO)[C@@H](O)[C@H](O)[C@H]1O | -4
CCN(CC)CCOC(=O)C(c1ccccc1)c1ccccc1 | 12.8
N[C@@H](CSCSC[C@H](N)C(=O)O)C(=O)O | 9.6
C=CC1=C(C)/C(=C/c2[nH]c(Cc3[nH]c(/C=C4\NC(=O)C(C)=C4C=C)c(C)c3CCC(=O)O)c(CCC(=O)O)c2C)NC1=O | 14.8
C[C@]12CC[C@@H]3c4ccc(O)cc4CC[C@H]3[C@@H]1CC[C@@H]2OC(=O)CCC1CCCC1 | -8.2
C[C@@H]1C(=O)O[C@H]2C[C@@]34[C@H]5C[C@@H](C(C)(C)C)[C@]36[C@@H](OC(=O)[C@@H]6O)O[C@@]4(C(=O)O5)[C@]21O | 27.3
CN(C)CCOC(c1ccc(Cl)cc1)c1ccccn1 (stereo not given) | 6.2
COc1ccc(/C=C/C(=O)O)cc1OC | -13
COc1ccc2c(c1)O[C@H]1c3ccc(OC)cc3OC[C@@H]21 | 4.8
CCCCC(CC)CN=C(N)N=C(N)NCCCCCCNC(N)=NC(N)=NCC(CC)CCCC (stereo not given) | 59.3
Cc1ncc(C[n+]2csc(CCO)c2C)c(N)n1 | -0.9
O=C(/C=C/c1ccccc1)c1ccc(O[C@@H]2O[C@H](CO)[C@@H](O)[C@H](O)[C@H]2O)cc1O | -8.5
COc1ccc(C(C)=O)c(O)c1 | 2.2
COc1c2ccoc2cc2oc(C)cc(=O)c12 | 12.6
COCC1=C(C(=O)OC(C)OC(=O)OC(C)C)N2C(=O)[C@@H](NC(=O)/C(=N\OC)c3csc(N)n3)[C@H]2SC1 (stereo not given in full) | 6.5
C[C@]12CCC(=O)C=C1CC[C@@H]1[C@@H]2[C@@H](O)C[C@@]2(C)[C@H]1CC[C@]2(O)C(=O)COP(=O)(O)O | -7
CC1(C)[C@@H](OC(=O)CCC(=O)O)CC[C@]2(C)[C@H]3C(=O)C=C4[C@@H]5C[C@@](C)(C(=O)O)CC[C@]5(C)CC[C@@]4(C)[C@]3(C)CC[C@@H]12 | -2.8
C/C=C/c1ccc(OC)cc1 | 7.8
CCOc1cc(CC(=O)N[C@@H](CC(C)C)c2ccccc2N2CCCCC2)ccc1C(=O)O | 5.1

SMILES | loss of total cells [%]
CC(=O)c1ccc[nH]1 | -13
O=C(Cn1ccnc1[N+](=O)[O-])NCCO | 3.4
NC(=O)c1ncn([C@@H]2O[C@H](CO)[C@@H](O)[C@H]2O)c1N | 23.7
COc1cc(/C=C/C(=O)CC(=O)/C=C/c2ccc(O)c(OC)c2)ccc1O | -5.2
COc1cc(O)c(C(C)=O)c(O)c1 | 25.9
CC(=O)O[C@@H]1CC[C@@]2(C)C(C[C@@H](OC(C)=O)[C@@]3(C)C4=CC(=O)O[C@@H](c5ccoc5)[C@]4(C)CCC23)C1(C)C (stereo partly drawn) [3alpha-ACETOXYDIHYDRODEOXYGEDUNIN] | 27
CN(C)CCCOc1nn(Cc2ccccc2)c2ccccc12 | -2.6
O=c1cc(-c2ccccc2)oc2cccc(O)c12 | 10.4
C1CNCCN1 | -13.7
OC[C@@H](O)[C@@H](O[C@@H]1O[C@H](CO)[C@@H](O)[C@H](O)[C@H]1O)[C@H](O)[C@@H](O)CO | -14.1
CC(CCc1ccc(O)cc1)NCCc1ccc(O)c(O)c1 (stereo not given) | 16.5
Oc1cccc(O)c1 | 8.2
COc1cc(O)c(C)c(O)c1 | 4.5
CCOC(=O)Nc1nc2ccccc2[nH]1 | 6.5
COc1cc2c(cc1OC)-c1c(oc3cc(O)cc(O)c3c1=O)CO2 | 8.5
Nc1cc(C(Cl)=C(Cl)Cl)c(S(N)(=O)=O)cc1S(N)(=O)=O | 4.7
N[C@@H](C(=O)O)[C@@H](O)[C@H](O)[C@H](O)CO | 13.3
C[C@@H]1CC[C@@]2(OC1)O[C@H]1C[C@H]3[C@@H]4CC=C5C[C@@H](O)CC[C@]5(C)[C@H]4CC[C@]3(C)[C@H]1[C@@H]2C | 0
Cc1cc(-c2ccccc2)nnc1NCCN1CCOCC1 | 4.5
COc1cc(-c2cc(=O)c3c(O)c(OC)c(OC)c(OC)c3o2)cc(OC)c1OC | 3.7
